Laboratory results: PubChem BioAssay AID1259405 (NCATS, 2018)
Here is an unselected part of about 50,000 reagents tested. In the full data, about 4,000 (8%) got an active call. 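Mouse siRNA library applied to hamster cells; one well for each siRNA.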 The numbers tell different reagents against one gene apart. No sequences are given here.

Test: 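Knock-downs that lift recombinant protein yield in hamster ovary cells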 (primary screen)
Cells: Chinese hamster CHO-K1 ovary cells with stable secreted eGFP expression
Reagents: single siRNA against mouse genes, 0.8 pmol siRNA per well (2 µl of 400 nM stock)
Time to read-out: 3 days
Read-out: 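Percent of the per-plate non-targeting control median for intracellular GFP per well by laser scanning cytometry and for cell viability by ATP luminescence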
Direction: GFP, % of control: higher = more GFP per well, higher productivity; viability (ATP), % of control: higher = more viable cells (more ATP)
Call rule: 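a knock-down is called active if GFP reaches 120% or more of non-targeting control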

gene	reagent no.	GFP, % of control	viability (ATP), % of control	outcome
Pip4p2	1	94.9	105	inactive
Pip4p2	2	196	92.6	active
Pip4p2	3	72.6	76.2	inactive
Fmo2	1	138	94.1	active
Fmo2	2	89	100	inactive
Fmo2	3	91.2	87	inactive
Adamts3	1	100	67.3	inactive
Adamts3	2	90.2	77.5	inactive
Adamts3	3	73.2	85.1	inactive
Eipr1	1	75.2	79.3	inactive
Eipr1	2	76.5	77.3	inactive
Eipr1	3	70	86.1	inactive
B430209F14Rik	1	70.7	31	inactive
B430209F14Rik	2	75.3	91.5	inactive
B430209F14Rik	3	60.1	34.2	inactive
Ap3m1	1	77.2	72.4	inactive
Ap3m1	2	40.9	50.8	inactive
Ap3m1	3	72.5	75.6	inactive
Reps2	1	72.5	66.6	inactive
Reps2	2	89.3	82.3	inactive
Reps2	3	38.7	53.6	inactive
Ecsit	1	80.2	86	inactive
Ecsit	2	142	98.9	active
Ihh	1	61.1	36.8	inactive
Ihh	2	15.4	15.6	inactive
Ihh	3	32.4	54.3	inactive
Serpinb8	1	112	47	inactive
Serpinb8	2	53.6	59.7	inactive
Serpinb8	3	88	100	inactive
Cdk4	1	89.9	90.5	inactive
Tnfaip1	1	132	67.6	active
Tnfaip1	2	56.6	70.6	inactive
Tnfaip1	3	47.2	41.4	inactive
Flii	1	57.8	72.8	inactive
Flii	2	92.1	92.5	inactive
Wbp1l	1	75.1	88.1	inactive
Wbp1l	2	82.6	72.6	inactive
Wbp1l	3	148	63.4	active
Tent2	1	69.9	61.8	inactive
Tent2	2	80.4	74.3	inactive
Tent2	3	76.3	61.9	inactive
Mbip	1	66.3	52.9	inactive
Mbip	2	52.7	27.8	inactive
Mbip	3	98	90.5	inactive
Dolk	1	126	86.8	active
Dolk	2	94.6	117	inactive
Dolk	3	101	83.9	inactive
Mrps17	1	72.4	34.8	inactive
Mrps17	2	99.6	73.6	inactive
Mrps17	3	47.5	68.2	inactive
Fuca1	1	70.6	78.1	inactive
Fuca1	2	96	84.5	inactive
Fuca1	3	82.3	52.6	inactive
Zfp109	1	89.1	84	inactive
Zfp109	2	64.2	77.8	inactive
Zfp109	3	75.7	77.3	inactive
Med28	1	62.9	89.8	inactive
Med28	2	53.6	70.8	inactive
Med28	3	182	109	active
Atp13a2	1	88.6	71.4	inactive
Atp13a2	2	104	96.5	inactive
Atp13a2	3	94.9	62.4	inactive
Golt1a	1	110	111	inactive
Golt1a	2	92.3	95.4	inactive
Golt1a	3	97.4	73.6	inactive
Apol10a	1	51.7	72.1	inactive
Apol10a	2	50.7	59.3	inactive
Apol10a	3	90.5	88.2	inactive
Meg3	1	45.1	54.8	inactive
Meg3	2	66.5	82.8	inactive
Meg3	3	119	62.9	inactive
Cdkn2c	1	92.8	104	inactive
Cdkn2c	2	43.3	61.2	inactive
Srpk1	1	64.7	80.1	inactive
Timm44	1	96.8	81.4	inactive
Timm44	2	45	61.7	inactive
Timm44	3	49.4	41.2	inactive
Klf16	1	60.3	78.2	inactive
Klf16	2	91.9	73.8	inactive
Klf16	3	95.6	108	inactive
Slc13a2	1	93.9	105	inactive
Slc13a2	2	44.8	64.6	inactive
Slc13a2	3	73.8	78	inactive
Cdc7	1	68.5	45.9	inactive
Apoc4	1	91.1	56.7	inactive
Apoc4	2	43.4	58.3	inactive
Apoc4	3	92.7	74	inactive
Amacr	1	105	90.5	inactive
Amacr	2	40.8	56.5	inactive
Amacr	3	61.2	77.9	inactive
Sbf1	1	103	69.6	inactive
Sbf1	2	66	76	inactive
Sbf1	3	68.8	61.2	inactive
Clba1	1	77.9	78.2	inactive
Clba1	2	84.5	69.5	inactive
Clba1	3	128	152	active
4930474N05Rik	1	92.8	61.8	inactive
4930474N05Rik	2	69	63	inactive
4930474N05Rik	3	65.1	91.3	inactive
Sall4	1	87.1	74.5	inactive
Sall4	2	86.2	67.6	inactive
Sall4	3	99.8	94.7	inactive
Dennd4a	1	80.1	89.7	inactive
Dennd4a	2	112	98.5	inactive
Dennd4a	3	80.7	56.5	inactive
Mkx	1	86.1	90.3	inactive
Mkx	2	85.3	82.6	inactive
